For assay [1], the target named is V₂ receptor (Rattus norvegicus, UniProt Q00788). The experiment in a line: V₂ receptor binding assay ([³H]-Arg-vasopressin, rat kidney plasma membrane preparations). The note with it: 4°C for 3 hours.
Assay [2] concerns the target V₁ receptor (Rattus norvegicus, UniProt P30560). The experiment in a line: V₁ receptor binding assay ([³H]-Arg-vasopressin, rat liver plasma membrane preparations). The note with it: 37°C for 10 minutes.

By UniProt entry, the sequences of proteins in these tests, tags left out.
UniProt Q00788, whole entry: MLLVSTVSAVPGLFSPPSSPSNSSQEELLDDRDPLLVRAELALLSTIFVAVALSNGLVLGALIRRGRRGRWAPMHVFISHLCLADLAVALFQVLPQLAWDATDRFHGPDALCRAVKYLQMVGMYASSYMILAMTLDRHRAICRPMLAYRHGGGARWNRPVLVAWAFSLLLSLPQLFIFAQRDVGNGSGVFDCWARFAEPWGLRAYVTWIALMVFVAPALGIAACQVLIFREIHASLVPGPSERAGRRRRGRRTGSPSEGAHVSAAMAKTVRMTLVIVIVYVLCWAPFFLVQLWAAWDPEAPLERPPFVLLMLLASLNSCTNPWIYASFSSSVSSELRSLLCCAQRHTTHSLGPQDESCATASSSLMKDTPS
UniProt P30560, whole entry: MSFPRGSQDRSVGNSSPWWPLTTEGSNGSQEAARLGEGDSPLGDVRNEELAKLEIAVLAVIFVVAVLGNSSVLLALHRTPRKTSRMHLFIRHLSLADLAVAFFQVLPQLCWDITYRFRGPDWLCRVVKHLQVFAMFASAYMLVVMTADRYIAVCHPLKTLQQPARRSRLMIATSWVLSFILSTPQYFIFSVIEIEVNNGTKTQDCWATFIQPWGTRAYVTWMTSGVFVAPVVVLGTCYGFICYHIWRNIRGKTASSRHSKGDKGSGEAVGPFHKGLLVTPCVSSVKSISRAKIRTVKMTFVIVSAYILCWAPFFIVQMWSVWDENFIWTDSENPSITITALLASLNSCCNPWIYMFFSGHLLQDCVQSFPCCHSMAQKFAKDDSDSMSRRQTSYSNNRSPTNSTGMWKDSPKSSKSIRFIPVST

The text below walks through data of patent publication EP0450097B1, “BENZOHETEROCYCLIC COMPOUNDS” (OTSUKA PHARMACEUTICAL CO., LTD., priority 1989, dated 1991).

Structures were worked out from names or drawings and are uncertain.

As a reminder, the IC50 is the concentration at which inhibition is half-maximal. High values mean weaker potency, low ones greater potency. `Cc1ccccc1C(=O)Nc1ccc(C(=O)N2CCS(=O)(=O)Cc3ccccc32)cc1` registered a concentration for half-maximal inhibition (IC50) in assay [1] of 0.21 µM.

With `Cc1ccccc1C(=O)Nc1ccc(C(=O)N2CCCC3(CO3)c3ccccc32)cc1` (stereo not shown), the half-maximal inhibitory concentration (IC50) in assay [2] worked out at 0.16 µM; in assay [1] it was 0.006 µM.

In assay [1], `O=C(c1ccc(NC(=O)C23CC4CC(CC(C4)C2)C3)cc1)N1CCCc2ccccc21` registered an IC50 of 0.23 µM.
